Consider three substances from PMC7862307.

Amino acid sequences for entries named in this document (tags omitted).
UniProt Q9NPD8: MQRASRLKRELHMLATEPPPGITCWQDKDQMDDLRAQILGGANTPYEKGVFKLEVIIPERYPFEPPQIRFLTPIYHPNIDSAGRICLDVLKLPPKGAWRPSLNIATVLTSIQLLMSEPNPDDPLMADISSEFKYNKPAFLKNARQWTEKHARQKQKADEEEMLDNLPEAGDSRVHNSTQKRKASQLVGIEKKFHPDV
UniProt Q7Z6Z7: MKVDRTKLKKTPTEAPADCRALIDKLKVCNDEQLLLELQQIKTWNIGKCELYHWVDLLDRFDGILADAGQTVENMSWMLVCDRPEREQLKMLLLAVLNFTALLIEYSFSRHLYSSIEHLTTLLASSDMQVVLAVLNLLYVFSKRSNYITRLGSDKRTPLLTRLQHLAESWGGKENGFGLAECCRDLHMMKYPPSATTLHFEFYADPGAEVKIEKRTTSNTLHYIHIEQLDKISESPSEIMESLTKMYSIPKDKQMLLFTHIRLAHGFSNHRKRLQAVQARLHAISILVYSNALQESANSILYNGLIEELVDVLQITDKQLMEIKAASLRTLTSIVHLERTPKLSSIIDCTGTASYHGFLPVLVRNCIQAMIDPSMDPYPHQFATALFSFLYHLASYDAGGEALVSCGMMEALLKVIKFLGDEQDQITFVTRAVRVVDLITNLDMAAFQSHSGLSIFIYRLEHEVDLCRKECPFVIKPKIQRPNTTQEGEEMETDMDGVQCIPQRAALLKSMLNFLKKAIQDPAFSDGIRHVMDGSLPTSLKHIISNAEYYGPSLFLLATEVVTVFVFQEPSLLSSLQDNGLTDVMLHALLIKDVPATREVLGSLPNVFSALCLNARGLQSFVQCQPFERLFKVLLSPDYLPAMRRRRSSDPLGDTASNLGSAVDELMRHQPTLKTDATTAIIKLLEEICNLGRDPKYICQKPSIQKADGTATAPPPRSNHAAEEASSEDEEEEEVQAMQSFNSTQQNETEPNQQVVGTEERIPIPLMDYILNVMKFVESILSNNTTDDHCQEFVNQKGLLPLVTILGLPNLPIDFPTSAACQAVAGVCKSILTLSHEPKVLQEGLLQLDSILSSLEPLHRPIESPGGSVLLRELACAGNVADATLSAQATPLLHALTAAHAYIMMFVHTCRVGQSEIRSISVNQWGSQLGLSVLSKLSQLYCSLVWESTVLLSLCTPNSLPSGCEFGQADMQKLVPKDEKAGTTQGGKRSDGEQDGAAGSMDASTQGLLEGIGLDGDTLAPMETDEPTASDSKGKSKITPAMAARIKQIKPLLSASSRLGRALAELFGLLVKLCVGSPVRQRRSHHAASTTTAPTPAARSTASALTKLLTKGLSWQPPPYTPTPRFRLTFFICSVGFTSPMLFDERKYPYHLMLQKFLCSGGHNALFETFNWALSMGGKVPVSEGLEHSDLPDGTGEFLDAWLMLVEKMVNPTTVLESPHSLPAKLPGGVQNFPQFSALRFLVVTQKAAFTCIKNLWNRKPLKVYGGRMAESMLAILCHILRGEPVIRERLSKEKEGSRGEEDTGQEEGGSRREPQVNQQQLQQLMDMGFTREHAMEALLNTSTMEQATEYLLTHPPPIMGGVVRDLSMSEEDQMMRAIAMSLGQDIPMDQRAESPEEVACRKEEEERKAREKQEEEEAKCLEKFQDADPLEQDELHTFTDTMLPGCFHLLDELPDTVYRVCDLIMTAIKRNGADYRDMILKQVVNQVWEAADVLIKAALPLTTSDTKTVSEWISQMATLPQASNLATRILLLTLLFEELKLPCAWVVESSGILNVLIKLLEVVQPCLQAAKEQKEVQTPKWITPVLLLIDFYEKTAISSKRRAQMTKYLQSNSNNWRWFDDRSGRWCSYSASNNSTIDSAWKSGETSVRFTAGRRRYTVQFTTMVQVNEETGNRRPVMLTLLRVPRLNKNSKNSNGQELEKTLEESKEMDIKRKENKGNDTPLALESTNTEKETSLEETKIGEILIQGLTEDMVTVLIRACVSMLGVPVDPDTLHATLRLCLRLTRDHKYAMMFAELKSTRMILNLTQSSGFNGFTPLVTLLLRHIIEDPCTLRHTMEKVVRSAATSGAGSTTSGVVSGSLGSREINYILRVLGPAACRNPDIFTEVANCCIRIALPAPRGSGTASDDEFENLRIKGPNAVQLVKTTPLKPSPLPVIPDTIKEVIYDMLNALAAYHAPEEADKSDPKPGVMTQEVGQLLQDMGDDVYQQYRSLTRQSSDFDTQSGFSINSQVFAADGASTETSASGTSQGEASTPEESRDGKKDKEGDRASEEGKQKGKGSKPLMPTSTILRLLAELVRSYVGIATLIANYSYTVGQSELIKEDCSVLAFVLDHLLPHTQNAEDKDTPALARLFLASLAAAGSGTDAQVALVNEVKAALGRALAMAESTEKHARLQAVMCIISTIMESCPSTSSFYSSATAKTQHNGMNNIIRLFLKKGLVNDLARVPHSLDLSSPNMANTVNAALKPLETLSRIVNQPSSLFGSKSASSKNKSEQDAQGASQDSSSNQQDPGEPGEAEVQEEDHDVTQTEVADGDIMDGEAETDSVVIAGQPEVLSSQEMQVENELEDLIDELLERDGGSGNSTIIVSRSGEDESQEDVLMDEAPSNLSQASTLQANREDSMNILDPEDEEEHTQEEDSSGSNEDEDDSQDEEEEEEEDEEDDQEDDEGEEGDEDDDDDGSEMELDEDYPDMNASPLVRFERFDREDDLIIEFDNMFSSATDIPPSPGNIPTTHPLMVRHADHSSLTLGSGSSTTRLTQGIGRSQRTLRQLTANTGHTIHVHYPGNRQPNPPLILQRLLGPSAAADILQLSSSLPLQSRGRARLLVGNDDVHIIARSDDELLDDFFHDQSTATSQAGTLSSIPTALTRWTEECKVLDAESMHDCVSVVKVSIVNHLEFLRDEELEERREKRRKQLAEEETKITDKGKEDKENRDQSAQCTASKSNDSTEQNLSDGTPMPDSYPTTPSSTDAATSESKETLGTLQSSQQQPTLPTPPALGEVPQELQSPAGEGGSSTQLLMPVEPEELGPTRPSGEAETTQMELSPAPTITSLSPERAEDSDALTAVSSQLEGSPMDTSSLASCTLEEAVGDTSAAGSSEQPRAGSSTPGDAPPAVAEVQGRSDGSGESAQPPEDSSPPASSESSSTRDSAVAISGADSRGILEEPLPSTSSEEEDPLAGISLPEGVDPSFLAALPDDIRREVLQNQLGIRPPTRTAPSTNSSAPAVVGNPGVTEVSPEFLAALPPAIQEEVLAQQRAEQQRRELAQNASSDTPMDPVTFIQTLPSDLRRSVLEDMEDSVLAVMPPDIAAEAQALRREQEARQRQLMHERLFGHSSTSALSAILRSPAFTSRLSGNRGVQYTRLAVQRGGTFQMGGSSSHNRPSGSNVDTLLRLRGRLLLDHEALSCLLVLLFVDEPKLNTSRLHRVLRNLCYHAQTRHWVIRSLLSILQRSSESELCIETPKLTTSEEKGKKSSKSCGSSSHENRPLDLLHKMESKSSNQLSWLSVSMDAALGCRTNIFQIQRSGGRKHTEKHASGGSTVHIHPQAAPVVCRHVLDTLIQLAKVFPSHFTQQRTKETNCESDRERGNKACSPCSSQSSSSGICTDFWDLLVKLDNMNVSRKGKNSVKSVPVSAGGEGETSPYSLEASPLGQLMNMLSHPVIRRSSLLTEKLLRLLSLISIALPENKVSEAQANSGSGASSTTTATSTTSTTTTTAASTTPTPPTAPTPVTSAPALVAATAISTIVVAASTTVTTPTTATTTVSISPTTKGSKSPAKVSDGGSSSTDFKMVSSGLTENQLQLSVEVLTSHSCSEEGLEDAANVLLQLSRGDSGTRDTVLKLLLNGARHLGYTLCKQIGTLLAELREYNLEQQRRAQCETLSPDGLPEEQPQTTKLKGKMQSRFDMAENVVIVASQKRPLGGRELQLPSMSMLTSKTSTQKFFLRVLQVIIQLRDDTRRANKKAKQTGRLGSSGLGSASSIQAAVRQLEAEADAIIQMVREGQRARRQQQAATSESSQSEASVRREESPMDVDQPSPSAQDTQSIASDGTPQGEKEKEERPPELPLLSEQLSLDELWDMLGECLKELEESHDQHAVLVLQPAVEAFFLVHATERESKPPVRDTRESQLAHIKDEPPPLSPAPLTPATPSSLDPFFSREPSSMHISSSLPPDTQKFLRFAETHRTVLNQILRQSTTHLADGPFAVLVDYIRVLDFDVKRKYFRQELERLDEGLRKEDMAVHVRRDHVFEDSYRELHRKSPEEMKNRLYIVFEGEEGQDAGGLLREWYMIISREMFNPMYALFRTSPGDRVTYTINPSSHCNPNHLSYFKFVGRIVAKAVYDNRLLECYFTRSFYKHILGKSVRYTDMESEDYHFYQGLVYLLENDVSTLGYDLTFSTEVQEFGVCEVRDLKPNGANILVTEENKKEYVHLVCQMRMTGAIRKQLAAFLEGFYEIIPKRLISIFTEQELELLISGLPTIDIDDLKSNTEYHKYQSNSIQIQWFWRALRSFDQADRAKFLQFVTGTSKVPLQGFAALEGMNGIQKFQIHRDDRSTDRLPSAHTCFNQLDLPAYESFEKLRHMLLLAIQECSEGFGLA

Assay [1] deals with SFB-UBE2T (ubiquitin-conjugating enzyme E2 T), stable clone in HEK293T (UniProt Q9NPD8). The assay is described as follows: co-IP; immunoprecipitation in HEK293T cells (Supplementary Fig. S6); details not shown.
In assay [2] the target is SFB-UBE2T expressed in Huh7 cells (UniProt Q9NPD8). The assay is described as follows: co-IP; SFB-UBE2T pulled down from Huh7 cells, Mule detected.
Assay [3] addresses endogenous UBE2T of MHCC-97L cells (human (endogenous in MHCC-97L)) (UniProt Q9NPD8). The assay is described as follows: co-IP; reciprocal co-immunoprecipitation of endogenous UBE2T and Mule in MHCC-97L cells.

These are yes or no findings as the source states them, for the method shown. Binding seen in cells or lysates may run through a third protein. Some results given as binding are weak or reduced against the parent protein; the word gives no strength.

On to “Mcl-1 ubiquitin ligase E3 (Mule) of HEK293T cells (from UniProt Q7Z6Z7 1-4374) (enzyme)”, for which the binding entry in assay [1] was “binds”. On to “Mule of Huh7 cells (from UniProt Q7Z6Z7 1-4374) (enzyme)”, for which the binding result in assay [2] is “binds”.

On to “endogenous Mule of MHCC-97L cells (from UniProt Q7Z6Z7 1-4374) (enzyme)”, for which, in assay [3], the binding entry is reported as “binds”.
